Assay results taken from the supplement of paper PMC6445147.
Values scatter widely in this assay.

B1: human tRNA-Pro; a variant is named by its letters at N, in order (parent)
chain: GGCTCGTTGGTCTAGNGGTATGATTCTCGCTTAGGGTGCGAGAGGTCCCGGGTTCNNATCCCGGACGAGCCC

Legend:
[1] = variants of: B1; test: tRNA Pol-III promoter activity, log2 (circRNA frequency / plasmid DNA frequency) (log2 ratio); higher = stronger promoter activity; conditions: HEK293T; construct: no Pol-II promoter ((-)CMV library)
[2] = variants of: B1; test: tRNA 3' processing efficiency (processed reads / all reads, maximum-likelihood estimate) (fraction); higher = more efficient 3' processing; conditions: HEK293T; construct: no Pol-II promoter ((-)CMV library)
[3] = variants of: B1; test: tRNA 5' processing efficiency (processed reads / all reads, maximum-likelihood estimate) (fraction); higher = more efficient 5' processing; conditions: HEK293T; construct: CMV Pol-II promoter ((+)CMV library, decapped)

Row | Variant | tRNA Pol-III promoter activity (log2) [1] | tRNA 3' processing efficiency [2] | tRNA 5' processing efficiency [3]
1 | GGCTCGTTGGTCTAGGTGTATGATTCTCGCTTTGGGTGCGAGAGGTCCCGGGTTGAAATCCCGGACGAGCCC [GAA G17T A33T C55G] | 4.93 | 0.5 | –
2 | GGCTCGTTGGTCTAGGTGTATGATTCTCGCTTAGGGTGCGAGAGGTCCCGGGTTGAAATCCCGGACGAGCCC [GAA G17T C55G] | -0.479 | 0.5 | –
3 | GGCTCGTTGGTCTAGGTGTGTGATTCTCGCTTAGGGTGCGAGAGGTCCCGGGTTCAATTCCCGGACGAGCCC [GAA G17T A20G A58T] | 3.51 | 0.33 | –
4 | GGCTCGTTGGTCTAGGTGTATGATTCTCGCTTAGGGTGCGAGAGGTCCCGGGTTCAAATCCCGGACGAGCCC [GAA G17T] | -1.3 | 0.86 | 0.2
5 | GGCTCGTTGGTCTAGGTGTGTGATTCTCGCTTAGGGTGCGAGAGGTCCCGGGATCAAATCCCGGACGAGCCC [GAA G17T A20G T53A] | 4.34 | 0.17 | –
6 | GGCTCGTTGGTCTAGATGTGTGATTCTCGCTTAGGGTGCGAGAGGTCCCGGGTTCAAATCCCGGACGAGCCC [AAA G17T A20G] | 1.73 | 0.2 | –
7 | GGCTCGTTGGTCTAGGCGTATGATTCTCGCTTAGGGTGCGAGAGGTCCCGGGTTCAAAGCCCGGACGAGCCC [GAA G17C T59G] | 1.83 | 0.27 | –
8 | GGCTCGTTGGTCTAGGTGTATGATTCTCGCTTAGGGTGCGAGAGGTCCCGGGTTCAACACCCGGACGAGCCC [GAA G17T A58C T59A] | 2.13 | 0.25 | –
9 | GGCTCGTTGGTCTAGGCGTATGATTCTCGCTTAGGGTGCGAGAGGTCCCGGGATCAAATCCCGGACGAGCCC [GAA G17C T53A] | 0.178 | 0.39 | –
10 | GGCTCGTTGGTCTAGGCGTATGATTCTCGCTTAGGGTGCGAGAGGTCCCGGGTCCAATTCCCGGACGAGCCC [GAA G17C T54C A58T] | 2.79 | 0.56 | –
11 | GGCTCGTTGGTCTAGTTGTATGATTCTCGCTTAGGGTGCGAGAGGTCCCGGGTTCAAATCCCGGACGAGCCC [TAA G17T] | -1.23 | 0.67 | –
12 | GGCTCGTTGGTCTAGGCGAATGATTCTCGCTTAGGGTGCGAGAGGTCCCGGGTTCAATTCCCGGACGAGCCC [GAA G17C T19A A58T] | 3.48 | 0.5 | –
13 | GGCTCGTTGGTCTAGGTGTATGATTCTCGCTTAGGGTGCGAGAGGTCCCGGGTTCAAGTCCCGGACGAGCCC [GAA G17T A58G] | 0.469 | 0.54 | –
14 | GGCTCGTTGGTCTAGGTGTATGATTCTCGCTTAGGGTGCGAGAGGTCCCGGGTTCAATTCCCGGACGAGCCC [GAA G17T A58T] | 1.03 | 0.71 | –
15 | GGCTCGTTGGTCTAGGTGTATGATTCTCGCTTAGGGTGCGAGAGGTCCCGGGTTCAACTCCCGGACGAGCCC [GAA G17T A58C] | 0.732 | 0.42 | 0.25
16 | GGCTCGTTGGTCTAGGCGTATGATTCTCGCTTAGGGTGCGAGAGGTCCCGGGTACAAATCCCGGACGAGCCC [GAA G17C T54A] | 0.68 | 0.38 | –
17 | GGCTCGTTGGTCTAGGTGTTTGATTCTCGCTTAGGGTGCGAGAGGTCCCGGGTTCAAAACCCGGACGAGCCC [GAA G17T A20T T59A] | 3.36 | 0.25 | –
18 | GGCTCGTTGGTCTAGGTGTTTGATTCTCGCTTAGGGTGCGAGAGGTCCCGGGTTCAAACCCCGGACGAGCCC [GAA G17T A20T T59C] | 5.86 | 0.38 | –

Taken from the results shown (2 entries):
Row | Variant | tRNA Pol-III promoter activity (log2) [1] | tRNA 3' processing efficiency [2] | tRNA 5' processing efficiency [3]
17 | GGCTCGTTGGTCTAGGTGTTTGATTCTCGCTTAGGGTGCGAGAGGTCCCGGGTTCAAAACCCGGACGAGCCC [GAA G17T A20T T59A] | 3.36 | 0.25 | –
18 | GGCTCGTTGGTCTAGGTGTTTGATTCTCGCTTAGGGTGCGAGAGGTCCCGGGTTCAAACCCCGGACGAGCCC [GAA G17T A20T T59C] | 5.86 | 0.38 | –
